Data as given in PubChem BioAssay AID504744 (Drosophila RNAi Screening Center, 2011)

Purpose: 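Find genes whose loss alters insulin-driven dAkt phosphorylation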 (primary screen)
System: Drosophila Kc167 cells
Reagent: long dsRNA against Drosophila genes, 250 ng dsRNA per well of a 384-well plate
Duration: 3 days of knock-down, then overnight serum-free starvation before stimulation
Treatment: bovine insulin at 387 nM for 10 minutes after 12 h without serum
Detection: 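Per-well phospho-dAkt level from an in-cell fluorescent antibody stain, divided by a DNA-dye signal; log2 residuals turned into z-scores that take cell number into account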
Call rule: 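Under insulin, a gene counts as a hit if the average z-score of two replicates lies above 2.5 or below -2.5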
In all, the deposit lists about 23,000 reagents; shown is an unselected part of those with a known target gene and a result. Of all reagents, 98 (0.43%) are marked active. 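Only hit calls are given; the phospho-dAkt signals, z-scores and hit direction were not deposited.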

CG12084 [DRSC08247]
- call: inactive

Antdh (Antennal dehydrogenase) [DRSC20307]
- call: inactive

CG14877 [DRSC15001]
- call: inactive

CG10019 [DRSC00279]
- call: inactive

CG13933 [DRSC08402]
- call: inactive

pyd3 [DRSC15459]
- call: inactive

pyd3 [DRSC21640]
- call: inactive

eIF3m (eukaryotic translation initiation factor 3 subunit m) [DRSC07142]
- call: inactive

CG8155 [DRSC07084]
- call: inactive

CG8155 [DRSC21543]
- call: inactive

Ak1 (Adenylate kinase 1) [DRSC10248]
- call: inactive

CG8519 [DRSC10985]
- call: inactive

yellow-h [DRSC17141]
- call: inactive

CG31016 [DRSC21359]
- call: inactive

nvy (nervy) [DRSC04705]
- call: inactive

CG31327 [DRSC13019]
- call: inactive

nerfin-2 (nervous fingers 2) [DRSC14547]
- call: inactive

oys (oysgedart) [DRSC05203]
- call: inactive

oys (oysgedart) [DRSC06751]
- call: inactive

alka (alkaliphile) [DRSC06136]
- call: inactive

CG13744 [DRSC06415]
- call: inactive

jeb (jelly belly) [DRSC06305]
- call: inactive

jeb (jelly belly) [DRSC06307]
- call: inactive

Laid out differently: results already given.
target gene	DRSC id	call
yellow-h	DRSC17141	inactive
CG31016	DRSC21359	inactive
nvy (nervy)	DRSC04705	inactive
